± gives the standard deviation. This is a selection; strong and weak results do not stand in their true shares. Many of these values have a large error.
Experiments:
Experiment in all cases: pre-steady-state target cleavage rate (min^-1); MIWI and MILI are mouse PIWI proteins and EfPiwi is from a freshwater sponge; tags in brackets are library labels; higher = faster piRNA-guided slicing of the target
[1] = system: MILI (PIWIL2) piRISC loaded with piRNA #1 (26 nt); details: guide: piRNA #1 5'p-UGAGGUAGUAGGUUGUAUAGUAUCCA; auxiliary factor: 500 nM mouse GTSF1
How it was run: (§1)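 At 33 °C in HEPES–potassium acetate buffer, a transcribed, DNA-blocked target RNA library […] was exposed for 0–8 or 0–960 min to 1 nM active affinity-purified piRISC carrying a single synthetic guide, with or without 500 nM GTSF1 partner protein. Uncleaved targets were sequenced and normalised to depth and to weakly complementary targets. With three trials pooled and k3 capped at 0.0001 min^-1, a burst-and-steady-state fit produced the pre-steady-state cleavage rate.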

[2] = system: MILI (PIWIL2) piRISC loaded with L1MC piRNA (26 nt); details: guide: L1MC piRNA 5'p-UAACUAAAUACUAUGCAAGCUGUAGG
How it was run: as §1

[3] = system: MIWI (PIWIL1) piRISC loaded with L1MC piRNA (30 nt); details: guide: L1MC piRNA 5'p-UAACUAAAUACUAUGCAAGCUGUAGGUCCU
How it was run: as §1

[4] = system: MIWI (PIWIL1) piRISC loaded with piRNA #1 (30 nt); details: guide: piRNA #1 5'p-UGAGGUAGUAGGUUGUAUAGUAUCCAGAGG; auxiliary factor: 500 nM mouse GTSF1
How it was run: as §1

[5] = auxiliary factor: none (no GTSF1)
[6] = auxiliary factor: 500 nM mouse GTSF1
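Also: 1 nM active piRISC with 0.1 nM target library at 33 °C single turnover.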

Sequence: GGAGACCUAUGAUAUCAACCUACAACCACA
- pre-steady-state target cleavage rate [1]: 0.000694 ± 0.0086

Sequence: UCCUGGAUCAGCUACGAUAGUAUUUAGUAA
- pre-steady-state target cleavage rate [2, 5]: 0.000438 ± 0.015
- pre-steady-state target cleavage rate [3, 6]: 0.0009 ± 0.011
- pre-steady-state target cleavage rate [3, 5]: 0.000694 ± 0.0099

Sequence: UCCUGGUACAGCUUGCAUUCUAUUUUCAAA
- pre-steady-state target cleavage rate [2, 5]: 0.000931 ± 0.01
- pre-steady-state target cleavage rate [3, 6]: 0.000456 ± 0.025
- pre-steady-state target cleavage rate [3, 5]: 0.000284 ± 0.013

Sequence: GGAGAGGAUACUAUUCAACCUACUACCACA
- pre-steady-state target cleavage rate [1]: 0.169 ± 0.017

Sequence: UCCUGGUAGUCCUUGCAUAGUAUUUUCAAA
- pre-steady-state target cleavage rate [2, 5]: 0.00283 ± 0.0035
- pre-steady-state target cleavage rate [3, 6]: 0.00197 ± 0.0056
- pre-steady-state target cleavage rate [3, 5]: 0.00116 ± 0.0043

Sequence: UCCUGGAUGUCGAACCAUAGUAUUUAGUUU [g2:g15:cont:t1U]
- pre-steady-state target cleavage rate [2, 5]: 0.000881 ± 0.0049
- pre-steady-state target cleavage rate [3, 6]: 0.000249 ± 0.017
- pre-steady-state target cleavage rate [3, 5]: 0.00105 ± 0.0053

Sequence: GGAGACGAUACUAUACAUCCUACAACCUCA
- pre-steady-state target cleavage rate [1]: 0.287 ± 0.022

Sequence: GGAGACCUAUCUAUACAACCUACAUACCUCA
- pre-steady-state target cleavage rate [1]: 0.113 ± 0.015

Sequence: UCCUGGAUCAGCUUGCAUACAUUUUAGAAA
- pre-steady-state target cleavage rate [2, 6]: 0.00125 ± 0.0083
- pre-steady-state target cleavage rate [3, 6]: 0.00127 ± 0.0098
- pre-steady-state target cleavage rate [3, 5]: 0.000304 ± 0.0089

Sequence: GGAGACCUAUGAUAUGUAGCUACUUCCUCA
- pre-steady-state target cleavage rate [1]: 0.000302 ± 0.018

Sequence: GGAGACGAGACUAUACAACCUACUACCUCA
- pre-steady-state target cleavage rate [1]: 0.214 ± 0.034

Sequence: GGAGACCUAUGAUAUGAACCUACUACCUCCA
- pre-steady-state target cleavage rate [1]: 0.000384 ± 0.0071

Sequence: UCCUGGAUGUCGUUCCAUAGUUUUUAGUUA
- pre-steady-state target cleavage rate [2, 5]: 0.000419 ± 0.014
- pre-steady-state target cleavage rate [3, 6]: 0.00227 ± 0.0059
- pre-steady-state target cleavage rate [3, 5]: 0.00045 ± 0.015

Sequence: UCCUGGAUGUCGAACCAUAGUUUAUAGUUA
- pre-steady-state target cleavage rate [2, 6]: 0.000324 ± 0.019
- pre-steady-state target cleavage rate [3, 6]: 0.000432 ± 0.013
- pre-steady-state target cleavage rate [3, 5]: 0.000263 ± 0.024

Sequence: UCCUGGAUGUCGAACCAUAGUAUUAUAGUUA
- pre-steady-state target cleavage rate [2, 5]: 0.000265 ± 0.02
- pre-steady-state target cleavage rate [3, 6]: 0.000296 ± 0.017
- pre-steady-state target cleavage rate [3, 5]: 0.000111 ± 0.023

Sequence: UCCUCGAUCAGCUUGCAUAGUAUUUAGAAA
- pre-steady-state target cleavage rate [2, 5]: 0.00185 ± 0.0032
- pre-steady-state target cleavage rate [3, 6]: 0.422 ± 0.044
- pre-steady-state target cleavage rate [3, 5]: 0.00569 ± 0.0022

Sequence: UCCUGCUAGUCCUUGCAUAGUAUUUUCAAA
- pre-steady-state target cleavage rate [2, 5]: 0.000619 ± 0.0099
- pre-steady-state target cleavage rate [3, 6]: 0.00409 ± 0.0054
- pre-steady-state target cleavage rate [3, 5]: 0.000773 ± 0.0073

Sequence: UCCUGGAUGUGCUUGCUAAGUAUUUAGUAA
- pre-steady-state target cleavage rate [2, 5]: 0.00108 ± 0.0059
- pre-steady-state target cleavage rate [3, 6]: 0.00179 ± 0.0065
- pre-steady-state target cleavage rate [3, 5]: 0.000855 ± 0.0074

Sequence: UCCUGGAUGUCGAACCAUAGUUUUUAGAUA
- pre-steady-state target cleavage rate [2, 5]: 0.000339 ± 0.011
- pre-steady-state target cleavage rate [3, 6]: 0.000397 ± 0.011
- pre-steady-state target cleavage rate [3, 5]: 0.000231 ± 0.019

Sequence: UCCUGGAUGUCCUUGCAUAGAAUUUUGUUA
- pre-steady-state target cleavage rate [2, 5]: 0.00132 ± 0.0066
- pre-steady-state target cleavage rate [3, 6]: 0.0014 ± 0.0082
- pre-steady-state target cleavage rate [3, 5]: 0.00108 ± 0.0064

Sequence: GGAGAGGAUACUAUACAUCCUACUACGUCA
- pre-steady-state target cleavage rate [1]: 0.00995 ± 0.003

Sequence: UCCUCCCUACAGCUUGCAUAGUAUUUAGUUA
- pre-steady-state target cleavage rate [2, 6]: 0.303 ± 0.02
- pre-steady-state target cleavage rate [3, 6]: 1.09 ± 0.038
- pre-steady-state target cleavage rate [3, 5]: 0.075 ± 0.016

Sequence: GGAGACCAUACUAUACAACCACUACCUCA
- pre-steady-state target cleavage rate [1]: 0.00277 ± 0.0035

Sequence: UCCUGCUACAGCUUGCAUAGAAUUUACAAA
- pre-steady-state target cleavage rate [2, 5]: 0.00117 ± 0.0038
- pre-steady-state target cleavage rate [3, 6]: 0.309 ± 0.065
- pre-steady-state target cleavage rate [3, 5]: 0.00239 ± 0.0028

Sequence: UCCUGGAUGUCGAACCAUAGUUUUUUGUUA
- pre-steady-state target cleavage rate [2, 5]: 0.000204 ± 0.018
- pre-steady-state target cleavage rate [3, 6]: 0.000187 ± 0.028
- pre-steady-state target cleavage rate [3, 5]: 0.000191 ± 0.021

Sequence: GGAGACCUAUGAUUACAACCUACAUGGAGA [g8:g17:cont:t1A]
- pre-steady-state target cleavage rate [1]: 0.000271 ± 0.019

Sequence: GGAGACCUAUGAAUUCUACCUACUACCUCA
- pre-steady-state target cleavage rate [1]: 0.000451 ± 0.0092

Sequence: GGAGACCUAUGAUAUCAAGCUACUAGCUCA
- pre-steady-state target cleavage rate [1]: 0.000934 ± 0.0072

Sequence: UCCUGGAUGUCCUUGCAUAGUAUAUAGUAA
- pre-steady-state target cleavage rate [2, 5]: 0.00119 ± 0.0053
- pre-steady-state target cleavage rate [3, 6]: 0.00263 ± 0.0048
- pre-steady-state target cleavage rate [3, 5]: 0.00206 ± 0.004

Sequence: GGAGAGGAUUCUAUAGAACCUACUACCUCA
- pre-steady-state target cleavage rate [1]: 0.157 ± 0.011

Sequence: UCCUGGAUGUCGAACCAUAGUUAUUAGUUA
- pre-steady-state target cleavage rate [2, 5]: 0.000404 ± 0.011
- pre-steady-state target cleavage rate [3, 6]: 0.000333 ± 0.014
- pre-steady-state target cleavage rate [3, 5]: 0.000426 ± 0.01

Sequence: UCCUGGAACAGCUUGCAUAGCUAUUUAGUUA
- pre-steady-state target cleavage rate [2, 5]: 0.00173 ± 0.004
- pre-steady-state target cleavage rate [3, 6]: 0.0102 ± 0.0047
- pre-steady-state target cleavage rate [3, 5]: 0.00136 ± 0.0044

Sequence: UCCUGGAUCAGCUUGCAUAGUAAUUAGAUA
- pre-steady-state target cleavage rate [2, 5]: 0.00272 ± 0.0029
- pre-steady-state target cleavage rate [3, 6]: 0.216 ± 0.036
- pre-steady-state target cleavage rate [3, 5]: 0.0126 ± 0.0029

Sequence: GGAGACCUAUGAUAUGAACCAUACUACCUCA
- pre-steady-state target cleavage rate [1]: 0.000246 ± 0.012

Sequence: GGAGACCUAUGUAUACAACUACUACCUCA
- pre-steady-state target cleavage rate [1]: 0.00206 ± 0.0037
- pre-steady-state target cleavage rate [4]: 0.00116 ± 0.004

Sequence: GGAGACCUAUGAAUACAACCUACUUCCUGA
- pre-steady-state target cleavage rate [1]: 0.00104 ± 0.0049
- pre-steady-state target cleavage rate [4]: 0.000219 ± 0.0088

Sequence: GGAGACCUAUGAAUACAACCUAGAUCCUCA
- pre-steady-state target cleavage rate [1]: 0.0017 ± 0.0044
- pre-steady-state target cleavage rate [4]: 0.000194 ± 0.012

Sequence: GGAGACCUAUGAUUACAACGUUCUACCUCA
- pre-steady-state target cleavage rate [1]: 0.0016 ± 0.0034
- pre-steady-state target cleavage rate [4]: 0.000273 ± 0.0059

Sequence: GGAGACCUAUGAAUACAACCUACUCCUCA
- pre-steady-state target cleavage rate [1]: 0.000326 ± 0.017
- pre-steady-state target cleavage rate [4]: 0.000426 ± 0.011

Sequence: GGAGACCUAUGAUAUGUUGCUACUACUCA
- pre-steady-state target cleavage rate [1]: 0.000359 ± 0.016
- pre-steady-state target cleavage rate [4]: 0.000591 ± 0.011

Sequence: GGAGACCUAUGAUAUCAACCUACUGACCUCA
- pre-steady-state target cleavage rate [1]: 0.00235 ± 0.0036
- pre-steady-state target cleavage rate [4]: 0.000961 ± 0.0058

Sequence: GGAGACCUAUGAUAUCAACCGUACUACCUCA
- pre-steady-state target cleavage rate [1]: 0.000778 ± 0.0059
- pre-steady-state target cleavage rate [4]: 0.000308 ± 0.0059

Sequence: GGAGACCUAUGUAUACAACCUACACCUCA
- pre-steady-state target cleavage rate [1]: 0.00103 ± 0.006
- pre-steady-state target cleavage rate [4]: 0.000512 ± 0.0083

Sequence: GGAGACCUAUGAUAACAACCUACAAGCUCA
- pre-steady-state target cleavage rate [1]: 0.00163 ± 0.0042
- pre-steady-state target cleavage rate [4]: 0.000121 ± 0.022

Sequence: GGAGACCUAUCUAUACAACCUCUACCUCA
- pre-steady-state target cleavage rate [1]: 0.00105 ± 0.0087
- pre-steady-state target cleavage rate [4]: 0.000606 ± 0.016

Sequence: GGAGACCUAUGAUAACAACGUACUACCACA
- pre-steady-state target cleavage rate [1]: 0.00128 ± 0.0045
- pre-steady-state target cleavage rate [4]: 0.000509 ± 0.011

Sequence: GGAGACCUAUCUAUACAACCACUACCUCA
- pre-steady-state target cleavage rate [1]: 0.00188 ± 0.005
- pre-steady-state target cleavage rate [4]: 0.00125 ± 0.0056

Sequence: GGAGACCUAACUAUUCAACCAACUACCUCA
- pre-steady-state target cleavage rate [1]: 0.00204 ± 0.0083
- pre-steady-state target cleavage rate [4]: 0.00312 ± 0.0058

Sequence: GGAGACCUAUGAUUACAACCAACUACCUGA
- pre-steady-state target cleavage rate [1]: 0.00179 ± 0.0034
- pre-steady-state target cleavage rate [4]: 0.000341 ± 0.0063

Sequence: GGAGACCUAUGAUAUCAACCUACUACCUGCA
- pre-steady-state target cleavage rate [1]: 0.00116 ± 0.0058
- pre-steady-state target cleavage rate [4]: 0.000485 ± 0.0074

Sequence: GGAGACCUAUGAUUACAACCUUCUACCACA
- pre-steady-state target cleavage rate [1]: 0.00204 ± 0.0026
- pre-steady-state target cleavage rate [4]: 0.000393 ± 0.0048

Sequence: GGAGACCUAUGAUAUCAACCAACUACCUGA
- pre-steady-state target cleavage rate [1]: 0.000321 ± 0.0085
- pre-steady-state target cleavage rate [4]: 0.000273 ± 0.0058

Sequence: GGAGACCUAUGAUUUCAACCUAGUACCUCA
- pre-steady-state target cleavage rate [1]: 0.0013 ± 0.005
- pre-steady-state target cleavage rate [4]: 0.00045 ± 0.007

Sequence: GGAGACCUAUGAUUACAACCUUCUUCCUCA
- pre-steady-state target cleavage rate [1]: 0.00148 ± 0.0036
- pre-steady-state target cleavage rate [4]: 0.000416 ± 0.007

Sequence: GGAGACCUAUGAUUACAACCUACUACGACA
- pre-steady-state target cleavage rate [1]: 0.00147 ± 0.0043
- pre-steady-state target cleavage rate [4]: 0.00028 ± 0.0084

Sequence: GGAGACCUAUGAUAUGUUGGUACAACCUCA
- pre-steady-state target cleavage rate [1]: 0.000344 ± 0.0086
- pre-steady-state target cleavage rate [4]: 0.00034 ± 0.0084
